Reference: publication PMC4762649, “Tel1 and Rif2 Regulate MRX Functions in End-Tethering and Repair of DNA Double-Strand Breaks” (PLoS Biology, 2016)
Substitutions are numbered along the chain they refer to. Names and notes keep the numbering of the source. Results are given in words; binding and its absence hold for the method and conditions named. Binding seen in cells or lysates may run through a third protein. Some results given as binding are weak or reduced against the parent protein; the word gives no strength. Tags and fused reporters may be left off the sequences shown. One block for each binder: values may come before it.

Biological target: T1, Mre11-Myc (S. cerevisiae) (UniProt P32829)
T1 sequence: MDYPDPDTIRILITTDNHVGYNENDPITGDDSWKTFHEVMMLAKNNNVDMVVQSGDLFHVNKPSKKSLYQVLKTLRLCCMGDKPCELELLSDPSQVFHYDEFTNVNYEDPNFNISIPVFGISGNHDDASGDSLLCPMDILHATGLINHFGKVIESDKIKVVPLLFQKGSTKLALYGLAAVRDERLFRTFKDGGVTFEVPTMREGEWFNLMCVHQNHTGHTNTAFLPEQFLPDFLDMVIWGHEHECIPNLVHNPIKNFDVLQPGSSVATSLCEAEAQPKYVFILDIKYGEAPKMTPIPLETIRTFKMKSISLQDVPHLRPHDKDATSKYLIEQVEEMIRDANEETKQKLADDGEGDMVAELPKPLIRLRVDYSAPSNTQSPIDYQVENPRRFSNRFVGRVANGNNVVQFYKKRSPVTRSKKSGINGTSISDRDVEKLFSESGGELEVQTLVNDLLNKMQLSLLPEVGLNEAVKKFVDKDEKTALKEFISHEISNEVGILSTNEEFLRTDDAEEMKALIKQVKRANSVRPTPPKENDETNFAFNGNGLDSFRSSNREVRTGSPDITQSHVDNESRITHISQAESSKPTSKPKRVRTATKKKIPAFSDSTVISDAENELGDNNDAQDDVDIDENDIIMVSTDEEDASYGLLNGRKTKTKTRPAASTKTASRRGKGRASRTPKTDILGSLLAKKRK
Assay: co-IP; Mre11-Myc immunoprecipitated with anti-Myc antibodies from yeast extracts; western blot with anti-HA or anti-Myc antibodies

binding: binds
B1: Rad50-HA (protein, UniProt P12753 1-1312)
chain: MSAIYKLSIQGIRSFDSNDRETIEFGKPLTLIVGMNGSGKTTIIECLKYATTGDLPPNSKGGVFIHDPKITGEKDIRAQVKLAFTSANGLNMIVTRNIQLLMKKTTTTFKTLEGQLVAINNSGDRSTLSTRSLELDAQVPLYLGVPKAILEYVIFCHQEDSLWPLSEPSNLKKKFDEIFQAMKFTKALDNLKSIKKDMSVDIKLLKQSVEHLKLDKDRSKAMKLNIHQLQTKIDQYNEEVSEIESQLNEITEKSDKLFKSNQDFQKILSKVENLKNTKLSISDQVKRLSNSIDILDLSKPDLQNLLANFSKVLMDKNNQLRDLETDISSLKDRQSSLQSLSNSLIRRQGELEAGKETYEKNRNHLSSLKEAFQHKFQGLSNIENSDMAQVNHEMSQFKAFISQDLTDTIDQFAKDIQLKETNLSDLIKSITVDSQNLEYNKKDRSKLIHDSEELAEKLKSFKSLSTQDSLNHELENLKTYKEKLQSWESENIIPKLNQKIEEKNNEMIILENQIEKFQDRIMKTNQQADLYAKLGLIKKSINTKLDELQKITEKLQNDSRIRQVFPLTQEFQRADLEMDFQKLFINMQKNIAINNKKMHELDRRYTNALYNLNTIEKDLQDNQKSKEKVIQLLSENLPEDCTIDEYNDVLEETELSYKTALENLKMHQTTLEFNRKALEIAERDSCCYLCSRKFENESFKSKLLQELKTKTDANFEKTLKDTVQNEKEYLHSLRLLEKHIITLNSINEKIDNSQKCLEKAKEETKTSKSKLDELEVDSTKLKDEKELAESEIRPLIEKFTYLEKELKDLENSSKTISEELSIYNTSEDGIQTVDELRDQQRKMNDSLRELRKTISDLQMEKDEKVRENSRMINLIKEKELTVSEIESSLTQKQNIDDSIRSKRENINDIDSRVKELEARIISLKNKKDEAQSVLDKVKNERDIQVRNKQKTVADINRLIDRFQTIYNEVVDFEAKGFDELQTTIKELELNKAQMLELKEQLDLKSNEVNEEKRKLADSNNEEKNLKQNLELIELKSQLQHIESEISRLDVQNAEAERDKYQEESLRLRTRFEKLSSENAGKLGEMKQLQNQIDSLTHQLRTDYKDIEKNYHKEWVELQTRSFVTDDIDVYSKALDSAIMKYHGLKMQDINRIIDELWKRTYSGTDIDTIKIRSDEVSSTVKGKSYNYRVVMYKQDVELDMRGRCSAGQKVLASIIIRLALSETFGANCGVIALDEPTTNLDEENIESLAKSLHNIINMRRHQKNFQLIVITHDEKFLGHMNAAAFTDHFFKVKRDDRQKSQIEWVDINRVTY

binding: binds
B2: Rad50-V1269M-HA (protein, UniProt P12753 1-1312)
chain: B1 chain with V1269M
